Experimental data as given in patent publication US6750244B2, “Compounds active at a novel site on receptor-operated calcium channels useful for treatment of neurological disorders and diseases” (NPS Pharmaceuticals, Inc., priority 1993, dated 2004).

Legend:
[1] = test system: NMDA receptor; experiment: Inhibition of NMDA/glycine-induced increases in intracellular calcium in cultured rat cerebellar granule cells (RCGC); type: cell-based; conditions: read-out: IC50 (μM) vs. NMDA
[2] = molecular target: NMDA receptor-ionophore complex (site labeled by [3H]MK-801); experiment: Inhibition of [3H]MK-801 binding in rat cortical/hippocampal washed membrane preparations; conditions: read-out: IC50 (μM) vs. [3H]MK-801; rat cortical/hippocampal washed membranes

Structure (SMILES) | IC50 [1] [µM] | IC50 [2] [µM]
CNCCC(Oc1ccc(C(F)(F)F)cc1)c1ccccc1 (centres unmarked) [fluoxetine, reference compound] | 3.4 | –
CN(C)CCCN1c2ccccc2CCc2ccc(Cl)cc21 [Clomipramine, reference compound] | – | 10
CN(C)CC/C=C1\c2ccccc2COc2ccccc21 [Doxepin, reference compound] | – | 30.4

Now from value to compound, other results behind:

IC50 [1] [µM] | Structure (SMILES) | IC50 [2] [µM]
26 | CN(C)CCOC(c1ccccc1)c1ccccc1 [diphenhydramine, reference compound] | –
5.8 | CNCCCC12CCC(c3ccccc31)c1ccccc12 [Maprotiline, reference compound] | –
